From patent US20190345261A1
Results are given in words; binding and its absence hold for the method and conditions named. Some binding calls cover weakened binding; strength is not graded here.

Target: T1, human aspartate β-hydroxylase (ASPH) (human) (UniProt Q12797)
T1 sequence (looked up): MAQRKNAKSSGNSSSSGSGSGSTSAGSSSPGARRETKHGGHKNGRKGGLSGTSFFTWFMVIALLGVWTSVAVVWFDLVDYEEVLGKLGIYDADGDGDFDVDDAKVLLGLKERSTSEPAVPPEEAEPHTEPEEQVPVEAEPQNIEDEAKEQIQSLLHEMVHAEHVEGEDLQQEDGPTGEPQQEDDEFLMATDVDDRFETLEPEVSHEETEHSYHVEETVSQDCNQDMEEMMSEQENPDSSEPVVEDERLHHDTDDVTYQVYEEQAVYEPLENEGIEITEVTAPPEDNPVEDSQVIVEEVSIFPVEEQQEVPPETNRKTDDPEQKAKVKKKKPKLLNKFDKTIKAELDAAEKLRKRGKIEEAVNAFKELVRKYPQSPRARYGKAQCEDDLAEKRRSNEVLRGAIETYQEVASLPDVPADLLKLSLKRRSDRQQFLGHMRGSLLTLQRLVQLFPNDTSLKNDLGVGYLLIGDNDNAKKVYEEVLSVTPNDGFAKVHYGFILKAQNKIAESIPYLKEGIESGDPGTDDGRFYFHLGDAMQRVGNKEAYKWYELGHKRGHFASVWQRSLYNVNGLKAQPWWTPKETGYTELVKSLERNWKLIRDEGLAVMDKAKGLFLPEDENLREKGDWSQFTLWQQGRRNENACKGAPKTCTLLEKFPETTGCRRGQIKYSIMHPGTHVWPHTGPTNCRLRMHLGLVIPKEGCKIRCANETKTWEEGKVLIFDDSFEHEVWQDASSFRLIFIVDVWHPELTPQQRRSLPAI
Test: flow cytometry, staining of MOLM-14, Raji and H460 cells

- binding: binds
B1: anti-ASPH mAb SNS622 (the 622 scFv reformatted into an IgG1 mAb) (antibody, V domains shown)
VH: QVQLQQSGPGLVKPSQTLSLTCAISGDSVSSNSAAWNWIRQSPSRGLEWLGRTYYRSKWYNDYAVSVKSRITINPDTSKNQFSLQLNSVTPEDTAVYYCARTGYSSSWVVNFDYWGQGTLVTVSS
VL: QPVLTQSPSASGTPGQRVTISCSGSSSNIGSNYVYWYQQLPGTAPKLLIYKNNQRPSGVPDRFSGSKSGTAASLAISGLQSEDEADYYCAAWDDSLRGYVFGTGTKLTVLS
